Experimental data from patent US20030091557A1, “Methods and compositions for modulating ACE-2 activity” (priority 2001, published 2003).
No constants are given. Whether binding was seen depends on the method and setting. Some entries that bind do so weakly or less than the wild type.

Target: FLAG-tagged ACE-2 (human) (UniProt Q9BYF1)
Assay: phage ELISA, FLAG-ACE-2 on anti-FLAG antibody plate

binding, binds:
MDHCTWYQPCVLK
LHACRPVRGDPWWACTLG
FLLCFDWDIDWEYGCQHH
RLHCKPQRQSPWMKCQHL
YEFCHYAPQECKHM
LEMCEALFCVEF [ACE-2 binding polypeptide … (Sequence Family I)]
WEVCHWAPMMCKHG
YWFCFDWEEDANGHCGGN
EHNCTWWNPCWTT
WDHCNWAHPCSRK
YEECHWRPMACSTH
YSHCSPLRYYPWWKCTYP
WAVCFDWENCGDK [ACE-2 binding polypeptide …-CGDK (Sequence Family VI)]
QKECKFGYPHCLPW [ACE-2 binding polypeptide … (Sequence Family VIII)]
WQFCFDWDLNCDLR
SDWCGTWNNPCFHQ
RYLCLPQRDKPWKFCNWF
